Earlier results, collected in US20070072946A1 (priority 2005, published 2007).
At least one compound was matched to its structure with a doubt left.

Test system: FMS patients
Settings: two trials in FMS patients; cited from earlier work

In the case of `CN(C)CCCC1(c2ccc(F)cc2)OCc2cc(C#N)ccc21` (stereo not shown) [citalopram], the “outcome of the placebo-controlled trials” value is listed as “convincingly negative”.
